# Results as given in PubChem BioAssay AID624297 (National Center for Advancing Translational Sciences (NCATS), 2012).
# In all, about 340,000 compounds went through this assay and about 6,200 (1.8%) were called active. The shares of active, inactive and inconclusive entries below differ from those in the screen. The call rests on the fitted dose curve; in most records, active means well fitted activation curve with a large enough effect; inconclusive means small, poorly fitted or top-dose-only effect; inactive means no such curve, though single readings can be large or run the other way. Potencies beside an inconclusive call are fits to weak or partial responses and may not hold up.
# Assay: A quantitative high throughput screen for small molecules that induce DNA re-replication in SW480 colon adenocarcinoma cells. Further: nearly all actives have a fitted effect of over 55% in size. On re-replication activation: % of control where 0% means no effect.
# Conditions: Hoechst DNA content imaging, 48 h; re-replication activation: at 46.1 µM (top of the series) unless noted
# Procedure, shortened: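 Cells (250 per well) received 23 nL compound or DMSO by pin tool and were kept 48 hr at 37 C, 5% CO2. Nuclei were then stained with Hoechst for 40 min and scanned for DNA content.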
# Potency means the concentration at half of the fitted maximal effect.
Compound,Potency,re-replication activation
O=C(CC(=O)N/N=C/c1c(Cl)cccc1Cl)NCc1cccnc1,"inconclusive: 14.6 µM [activator, partial curve, poor fit]",
O=C(CSc1nc2ccccc2c(=O)[nH]1)N1CCCCCC1,"inconclusive: 32.6 µM [activator, partial curve, poor fit]",
CC(=O)N=c1c(C#N)cc2c(=O)n3ccccc3nc2n1CCCOC(C)C,active: 16.4 µM,
O=C(COc1ccc2ccccc2c1)Nc1ccc2c3c(cccc13)CC2,,inactive: -9.14%
CCOC(=O)Cc1c(C)nc2cc(-c3ccc(C(C)(C)C)cc3)[nH]n2c1=O,"inconclusive: 15.8 µM [activator, single point]",
CCCc1ccc(O)c(N=Cc2cc(Br)cc(OCC)c2O)c1,"inconclusive: 25.9 µM [activator, single point]",
Cc1cc(N/C=C/C(=O)c2ccccc2)ccc1Br,,inactive: -14.8%
CC(C)[C@H](NC(=O)[C@@H]1Cc2c([nH]c3ccccc23)C2c3ccccc3C(=O)N21)C(=O)NCC1CCCO1 (stereo partly drawn),"inconclusive: 1.03 µM [activator, partial curve, poor fit]",
Cc1cc(C)c2sc(NNC(=O)C3COc4ccccc4O3)nc2c1 (stereo not drawn),"inconclusive: 29.1 µM [activator, single point]",
C=CCN1N=C(/C=C/c2ccc(C)cc2)CCC1=O,,inactive: 90.2%
O=C(NCC(c1cccs1)N1CCOCC1)C1CCN(S(=O)(=O)c2cccc(C(F)(F)F)c2)CC1 (stereo not drawn),"inconclusive: 7.31 µM [activator, partial curve, poor fit]",
CC(=O)Nc1cccc(C(=O)NCC2(N3CCCCC3)CCCCC2)c1,"inconclusive: 29.1 µM [activator, single point]",
CCOC(=O)Cn1c(=O)oc2cc(S(=O)(=O)N(C)c3cccc(C)c3)ccc21,"inconclusive: 29.1 µM [activator, single point]",
O=C(CCl)N(C1CCCC1)C1CCS(=O)(=O)C1 (stereo not drawn),active: 20.6 µM,
Cn1c(N)c(C(=O)CSc2nn(-c3ccccc3)c(=S)s2)c(=O)n(C)c1=O,"inconclusive: 18.4 µM [activator, partial curve, poor fit]",
CCN(CC)CCCN=C1N[C@@H](c2cccc(F)c2)C(C(=O)OC)=C(C)N1Cc1ccccc1,"inconclusive: 23.1 µM [activator, single point]",
Clc1cccc(Cl)c1Cn1cnc2c(N3CCCCCC3)ncnc21,"inconclusive: 18.4 µM [activator, single point]",
Cc1nn(Cc2ccc(Cl)cc2Cl)c(C)c1NC(=O)c1ccc(COc2cc(Cl)ccc2Cl)o1,"inconclusive: 20.6 µM [activator, partial curve, poor fit]",

# Single records (already shown):
# `CC(C)[C@H](NC(=O)[C@@H]1Cc2c([nH]c3ccccc23)C2c3ccccc3C(=O)N21)C(=O)NCC1CCCO1` (stereo partly drawn) is listed as Potency: inconclusive: 1.03 µM [activator, partial curve, poor fit]
# `Cc1cc(C)c2sc(NNC(=O)C3COc4ccccc4O3)nc2c1` (stereo not drawn) is listed as Potency: inconclusive: 29.1 µM [activator, single point]
